PubChem BioAssay AID652259, Drosophila RNAi Screening Center | 2013

- Test: 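Genome-wide hunt for genes that control Wingless pathway activity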 (primary screen)
- Cell system: Drosophila clone 8 imaginal disc epithelial cells
- Reagent: long dsRNA against Drosophila genes
- Conditions: pathway stimulated by co-transfected Wingless expression plasmid
- Detection: 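Dual luciferase reads per well after Wingless plasmid stimulation: reporter firefly light and Renilla control light; activity is firefly divided by Renilla, a ratio not deposited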
- Reading the numbers: firefly reporter light: higher = more Wg reporter light, before normalisation; Renilla control light: higher = more transfected or surviving cells
- Hit rule: 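Strong candidates differ from their plate mean by at least two out of four per-plate statistical tests; weak candidates meet just one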
- Meaning of the calls: active = candidate regulator (raises or lowers reporter); inactive = not a candidate
In all, the deposit lists about 22,000 reagents; shown is an unselected part of those that have a named target and a result. Of all reagents, 233 (1.1%) were called active. 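Light values are raw, unnormalised plate reads; the ratio scores behind the reporter calls were not deposited.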 Unmarked entries are inactive. Reagents against one gene are numbered here. The record does not give: the amount of reagent, the time to read-out, the dose of the treatment.

gene | reagent no. | reporter change call, replicate 1 | firefly reporter light, replicate 1 | firefly reporter light, replicate 2 | Renilla control light, replicate 1 | Renilla control light, replicate 2
GstE1 | 1 | – | 9181 | – | 2253 | –
Cib2 | 1 | – | 2330 | 8919 | 858 | 2784
DnaJ-H | 1 | – | 3229 | 5328 | 1139 | 2341
wnd | 1 | – | 4908 | – | 2480 | –
wnd | 2 | – | 3321 | – | 1225 | –
wnd | 3 | – | 3.23e5 | 4.20e5 | 1.74e5 | 1.99e5
CG34273 | 1 | – | 2872 | – | 583 | –
CG4133 | 1 | Wg reporter activity raised (active) | 7360 | 7072 | 1146 | 1184
CG15423 | 1 | – | 4858 | 8105 | 1549 | 3000
ZnT77C | 1 | – | 14117 | – | 5041 | –
ZnT77C | 2 | – | 14023 | – | 5123 | –
Nipped-B | 1 | – | 4929 | – | 2068 | –
p130CAS | 1 | – | 2721 | – | 1872 | –
p130CAS | 2 | – | 17794 | – | 5649 | –

An excerpt from above, reduced to “Renilla control light, replicate 1”.
CG15423: 1549
ZnT77C #1: 5041

Next reagents:
gene | reagent no. | reporter change call, replicate 1 | firefly reporter light, replicate 1 | firefly reporter light, replicate 2 | Renilla control light, replicate 1 | Renilla control light, replicate 2
par-6 | 1 | – | 2316 | 10289 | 908 | 2554
ValRS-m | 1 | – | 1491 | 5888 | 1297 | 1578
Spf30 | 1 | – | 11994 | – | 4439 | –
CG11555 | 1 | – | 3298 | 8459 | 957 | 2912
RabX5 | 1 | – | 6329 | – | 2825 | –
dgo | 1 | – | 24035 | – | 6025 | –
muc | 1 | – | 4016 | 10609 | 1131 | 3576
muc | 2 | – | 6.26e5 | 6.19e5 | 2.24e5 | 2.37e5
CG6154 | 1 | – | 20556 | – | 26177 | –
Hgsnat | 1 | – | 2584 | 7803 | 1034 | 1228
Gr23a | 1 | – | 2880 | 6516 | 1303 | 2618
CG14286 | 1 | – | 15316 | – | 3820 | –
smash | 1 | – | 8192 | – | 2624 | –
smash | 2 | – | 5844 | – | 1337 | –
smash | 3 | – | 15511 | – | 4727 | –
smash | 4 | – | 17621 | – | 5557 | –
